Results from paper PMC7456924.
No constants are given. Whether binding was seen depends on the method and setting. Some binding calls cover weakened binding; strength is not graded here. Sequences can lack the tags named with a protein.

T1: NBR1 (selective autophagy cargo receptor), yeast two-hybrid fusion (A. thaliana) (UniProt Q9SB64)
T1 sequence: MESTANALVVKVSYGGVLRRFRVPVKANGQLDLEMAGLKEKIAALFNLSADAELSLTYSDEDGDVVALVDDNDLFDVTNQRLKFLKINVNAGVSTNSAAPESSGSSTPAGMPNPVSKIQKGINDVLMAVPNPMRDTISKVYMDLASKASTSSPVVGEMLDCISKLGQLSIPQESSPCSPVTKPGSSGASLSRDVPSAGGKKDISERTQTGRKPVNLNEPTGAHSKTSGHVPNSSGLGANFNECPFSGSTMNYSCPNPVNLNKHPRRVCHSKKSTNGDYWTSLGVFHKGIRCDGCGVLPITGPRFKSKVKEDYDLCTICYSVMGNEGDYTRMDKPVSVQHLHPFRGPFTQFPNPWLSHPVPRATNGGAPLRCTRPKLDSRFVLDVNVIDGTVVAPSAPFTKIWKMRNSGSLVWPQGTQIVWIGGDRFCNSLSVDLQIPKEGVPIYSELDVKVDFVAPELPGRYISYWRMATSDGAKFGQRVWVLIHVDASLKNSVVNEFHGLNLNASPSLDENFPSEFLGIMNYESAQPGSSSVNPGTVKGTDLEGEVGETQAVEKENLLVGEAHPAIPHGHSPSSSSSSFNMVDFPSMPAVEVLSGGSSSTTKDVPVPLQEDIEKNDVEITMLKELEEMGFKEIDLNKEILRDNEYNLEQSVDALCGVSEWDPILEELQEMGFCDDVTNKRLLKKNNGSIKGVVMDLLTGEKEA

T2: LSU3 (RESPONSE TO LOW SULFUR 3), yeast two-hybrid fusion (A. thaliana) (UniProt Q9SCK2)
T2 sequence: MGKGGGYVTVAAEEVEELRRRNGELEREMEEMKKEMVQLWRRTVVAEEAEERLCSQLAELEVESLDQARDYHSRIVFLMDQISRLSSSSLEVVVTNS

T3: LSU1 (RESPONSE TO LOW SULFUR 1), yeast two-hybrid fusion (A. thaliana) (UniProt Q9SCK1)
T3 sequence: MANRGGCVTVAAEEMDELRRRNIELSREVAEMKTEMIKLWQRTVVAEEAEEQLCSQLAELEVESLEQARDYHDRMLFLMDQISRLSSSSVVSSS

T4: RAF2/SDIRIP1, yeast two-hybrid fusion (A. thaliana) (UniProt Q9LU63)
T4 sequence: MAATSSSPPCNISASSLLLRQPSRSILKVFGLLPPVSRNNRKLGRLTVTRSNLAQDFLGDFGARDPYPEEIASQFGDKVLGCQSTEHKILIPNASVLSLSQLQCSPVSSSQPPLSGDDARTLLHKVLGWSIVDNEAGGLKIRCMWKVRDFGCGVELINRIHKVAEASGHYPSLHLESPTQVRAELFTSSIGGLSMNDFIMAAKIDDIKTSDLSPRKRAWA

T5: CAT2 (peroxisomal catalase), yeast two-hybrid fusion (A. thaliana) (UniProt P25819)
T5 sequence: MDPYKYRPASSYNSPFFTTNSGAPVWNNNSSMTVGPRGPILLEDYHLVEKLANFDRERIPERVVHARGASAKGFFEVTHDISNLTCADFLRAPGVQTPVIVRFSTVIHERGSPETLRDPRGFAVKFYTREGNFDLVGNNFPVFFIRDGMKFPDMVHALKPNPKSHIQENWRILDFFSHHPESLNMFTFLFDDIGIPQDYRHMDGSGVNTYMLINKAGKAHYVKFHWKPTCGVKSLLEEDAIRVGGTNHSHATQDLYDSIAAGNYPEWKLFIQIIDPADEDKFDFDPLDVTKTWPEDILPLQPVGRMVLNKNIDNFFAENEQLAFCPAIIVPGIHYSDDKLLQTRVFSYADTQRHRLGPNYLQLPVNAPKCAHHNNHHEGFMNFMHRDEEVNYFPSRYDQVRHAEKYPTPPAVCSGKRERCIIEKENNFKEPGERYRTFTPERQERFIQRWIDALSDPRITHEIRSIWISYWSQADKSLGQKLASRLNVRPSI

T6: LSU2 (RESPONSE TO LOW SULFUR 2), yeast two-hybrid fusion (A. thaliana) (UniProt Q9FIR9)
T6 sequence: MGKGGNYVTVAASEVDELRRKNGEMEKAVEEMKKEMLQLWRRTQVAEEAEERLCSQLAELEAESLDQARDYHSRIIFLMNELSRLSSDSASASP

T7: LSU4 (RESPONSE TO LOW SULFUR 4), yeast two-hybrid fusion (A. thaliana) (UniProt Q8L8S2)
T7 sequence: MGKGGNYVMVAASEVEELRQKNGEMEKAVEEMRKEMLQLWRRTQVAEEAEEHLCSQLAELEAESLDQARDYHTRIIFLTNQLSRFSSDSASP


Key:
Assay in all cases: two-hybrid; Yeast Y2HGold or PJ69-4a; pDEST22 (GAL4 AD) and pDEST32 (GAL4 BD); growth on -LTH + 3 mM or 5 mM 3-AT or on -LTA; 30°C, or room temperature for longer exposures
[1] = biological target: T1, NBR1 (selective autophagy cargo receptor), yeast two-hybrid fusion (A. thaliana)
[2] = biological target: T2, LSU3 (RESPONSE TO LOW SULFUR 3), yeast two-hybrid fusion (A. thaliana)
[3] = biological target: T3, LSU1 (RESPONSE TO LOW SULFUR 1), yeast two-hybrid fusion (A. thaliana)
[4] = biological target: T4, RAF2/SDIRIP1, yeast two-hybrid fusion (A. thaliana)
[5] = biological target: T5, CAT2 (peroxisomal catalase), yeast two-hybrid fusion (A. thaliana)
[6] = biological target: T6, LSU2 (RESPONSE TO LOW SULFUR 2), yeast two-hybrid fusion (A. thaliana)
[7] = biological target: T7, LSU4 (RESPONSE TO LOW SULFUR 4), yeast two-hybrid fusion (A. thaliana)
[8] = biological target: LSU1 C54R, yeast two-hybrid fusion (A. thaliana) (UniProt Q9SCK1)
[9] = biological target: LSU1 C54E, yeast two-hybrid fusion (A. thaliana) (UniProt Q9SCK1)
[10] = biological target: LSU1 L60A, yeast two-hybrid fusion (A. thaliana) (UniProt Q9SCK1)
[11] = biological target: LSU1 C54A, yeast two-hybrid fusion (A. thaliana) (UniProt Q9SCK1)

Row | Binder | binding [1] | binding [2] | binding [3] | binding [4] | binding [5] | binding [6] | binding [7] | binding [8] | binding [9] | binding [10] | binding [11]
1 | LSU1 (RESPONSE TO LOW SULFUR 1), yeast two-hybrid fusion (protein, UniProt Q9SCK1 1-94) MANRGGCVTVAAEEMDELRRRNIELSREVAEMKTEMIKLWQRTVVAEEAEEQLCSQLAELEVESLEQARDYHDRMLFLMDQISRLSSSSVVSSS | binds | binds | binds | binds | binds | binds | binds weakly | – | – | – | –
2 | LSU1 C54E, yeast two-hybrid fusion (protein, UniProt Q9SCK1 1-94) MANRGGCVTVAAEEMDELRRRNIELSREVAEMKTEMIKLWQRTVVAEEAEEQLESQLAELEVESLEQARDYHDRMLFLMDQISRLSSSSVVSSS | binds | – | binds | binds | binds weakly | binds | – | – | binds | – | –
3 | LSU1 C54A, yeast two-hybrid fusion (protein, UniProt Q9SCK1 1-94) MANRGGCVTVAAEEMDELRRRNIELSREVAEMKTEMIKLWQRTVVAEEAEEQLASQLAELEVESLEQARDYHDRMLFLMDQISRLSSSSVVSSS | binds | – | binds | binds | binds | binds | – | – | – | – | binds

Now from value to binder:

Row | binding [1] | binding [2] | binding [3] | binding [4] | binding [5] | binding [6] | binding [7] | binding [8] | binding [9] | binding [10] | binding [11] | Binder
4 | binds weakly | binds weakly | binds weakly | – | – | – | – | – | – | – | – | LSU4 (RESPONSE TO LOW SULFUR 4), yeast two-hybrid fusion (protein, UniProt Q8L8S2 1-92) MGKGGNYVMVAASEVEELRQKNGEMEKAVEEMRKEMLQLWRRTQVAEEAEEHLCSQLAELEAESLDQARDYHTRIIFLTNQLSRFSSDSASP
5 | binds | – | binds | binds | binds | binds | – | binds | – | – | – | LSU1 C54R, yeast two-hybrid fusion (protein, UniProt Q9SCK1 1-94) MANRGGCVTVAAEEMDELRRRNIELSREVAEMKTEMIKLWQRTVVAEEAEEQLRSQLAELEVESLEQARDYHDRMLFLMDQISRLSSSSVVSSS
6 | – | – | binds | binds | binds | binds | – | – | – | binds | – | LSU1 L60A, yeast two-hybrid fusion (protein, UniProt Q9SCK1 1-94) MANRGGCVTVAAEEMDELRRRNIELSREVAEMKTEMIKLWQRTVVAEEAEEQLCSQLAEAEVESLEQARDYHDRMLFLMDQISRLSSSSVVSSS
